Measured values published in patent US4766140A, “Method of inhibiting aromatase” (Eli Lilly and Company, priority 1984, dated 1988).

Target: T1, aromatase (Rattus norvegicus, UniProt P22443)
T1 construct: ovarian microsomes are obtained from rats treated with pregnant mares serum gonadotropin; from tissue; host or cells: ovarian microsomes from rats treated with pregnant mares serum gonadotropin
T1 sequence (P22443 1-508): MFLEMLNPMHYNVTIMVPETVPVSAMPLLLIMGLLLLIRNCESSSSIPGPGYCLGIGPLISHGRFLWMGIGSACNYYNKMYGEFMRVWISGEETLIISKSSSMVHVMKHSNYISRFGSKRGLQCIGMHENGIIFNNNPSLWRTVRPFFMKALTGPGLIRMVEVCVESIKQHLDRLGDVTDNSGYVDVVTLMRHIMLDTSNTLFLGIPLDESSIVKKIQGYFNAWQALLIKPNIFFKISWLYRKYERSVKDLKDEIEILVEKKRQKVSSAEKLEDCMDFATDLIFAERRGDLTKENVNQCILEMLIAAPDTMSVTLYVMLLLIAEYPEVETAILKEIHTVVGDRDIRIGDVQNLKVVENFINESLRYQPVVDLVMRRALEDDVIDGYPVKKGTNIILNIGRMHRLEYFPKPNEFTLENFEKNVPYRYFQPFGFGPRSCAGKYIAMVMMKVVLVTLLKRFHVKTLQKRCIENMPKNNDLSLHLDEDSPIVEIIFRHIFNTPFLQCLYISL
Test: Aromatase inhibition in the rat ovarian microsome assay
Format: biochemical

## Clc1ccc(COC(Cn2ccnc2)c2ccc(Cl)cc2Cl)c(Cl)c1 (stereo not drawn) [1-[2,4-dichloro-β-(2,4-dichloro-benzyloxy)phenylethyl]imidazole]
  EC50: 310 nM
